# Experimental data taken from the supplement of paper PMC6411743.
# Chains of the proteins cited; added tags and fusions are not shown. Lines headed by an entry give the natural chain unless they say otherwise; changes in a name come on top.
# UniProt Q96AQ8: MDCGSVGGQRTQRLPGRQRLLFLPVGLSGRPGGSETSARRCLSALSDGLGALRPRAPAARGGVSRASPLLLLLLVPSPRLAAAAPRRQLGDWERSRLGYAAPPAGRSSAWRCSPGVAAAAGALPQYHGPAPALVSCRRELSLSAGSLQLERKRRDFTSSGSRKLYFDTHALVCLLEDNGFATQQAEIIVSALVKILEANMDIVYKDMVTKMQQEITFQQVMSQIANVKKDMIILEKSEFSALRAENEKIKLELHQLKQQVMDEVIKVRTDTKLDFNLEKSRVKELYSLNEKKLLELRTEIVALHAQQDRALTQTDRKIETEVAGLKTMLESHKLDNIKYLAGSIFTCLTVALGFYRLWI
# UniProt Q96CS3: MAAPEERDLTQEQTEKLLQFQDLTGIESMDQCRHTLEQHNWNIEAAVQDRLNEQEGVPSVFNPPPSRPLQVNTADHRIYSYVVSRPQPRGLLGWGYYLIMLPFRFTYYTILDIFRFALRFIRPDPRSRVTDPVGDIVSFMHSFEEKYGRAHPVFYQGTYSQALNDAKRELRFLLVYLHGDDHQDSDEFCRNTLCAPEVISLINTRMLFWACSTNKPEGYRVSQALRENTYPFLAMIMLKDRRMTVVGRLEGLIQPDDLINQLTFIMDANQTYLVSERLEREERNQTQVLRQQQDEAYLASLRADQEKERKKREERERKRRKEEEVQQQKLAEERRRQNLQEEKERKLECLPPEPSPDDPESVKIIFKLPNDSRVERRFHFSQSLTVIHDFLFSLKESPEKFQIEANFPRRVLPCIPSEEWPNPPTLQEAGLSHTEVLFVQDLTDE
# UniProt Q96FX2: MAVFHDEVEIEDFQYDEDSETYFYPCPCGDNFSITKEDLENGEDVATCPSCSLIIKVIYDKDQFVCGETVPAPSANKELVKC
# UniProt Q969M3: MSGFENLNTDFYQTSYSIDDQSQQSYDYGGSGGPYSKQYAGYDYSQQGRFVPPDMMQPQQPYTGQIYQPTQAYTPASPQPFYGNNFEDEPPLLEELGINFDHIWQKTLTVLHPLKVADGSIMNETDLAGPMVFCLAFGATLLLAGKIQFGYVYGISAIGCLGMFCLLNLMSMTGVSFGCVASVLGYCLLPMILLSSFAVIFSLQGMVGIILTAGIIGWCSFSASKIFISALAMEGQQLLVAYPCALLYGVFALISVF
# UniProt Q96JG6: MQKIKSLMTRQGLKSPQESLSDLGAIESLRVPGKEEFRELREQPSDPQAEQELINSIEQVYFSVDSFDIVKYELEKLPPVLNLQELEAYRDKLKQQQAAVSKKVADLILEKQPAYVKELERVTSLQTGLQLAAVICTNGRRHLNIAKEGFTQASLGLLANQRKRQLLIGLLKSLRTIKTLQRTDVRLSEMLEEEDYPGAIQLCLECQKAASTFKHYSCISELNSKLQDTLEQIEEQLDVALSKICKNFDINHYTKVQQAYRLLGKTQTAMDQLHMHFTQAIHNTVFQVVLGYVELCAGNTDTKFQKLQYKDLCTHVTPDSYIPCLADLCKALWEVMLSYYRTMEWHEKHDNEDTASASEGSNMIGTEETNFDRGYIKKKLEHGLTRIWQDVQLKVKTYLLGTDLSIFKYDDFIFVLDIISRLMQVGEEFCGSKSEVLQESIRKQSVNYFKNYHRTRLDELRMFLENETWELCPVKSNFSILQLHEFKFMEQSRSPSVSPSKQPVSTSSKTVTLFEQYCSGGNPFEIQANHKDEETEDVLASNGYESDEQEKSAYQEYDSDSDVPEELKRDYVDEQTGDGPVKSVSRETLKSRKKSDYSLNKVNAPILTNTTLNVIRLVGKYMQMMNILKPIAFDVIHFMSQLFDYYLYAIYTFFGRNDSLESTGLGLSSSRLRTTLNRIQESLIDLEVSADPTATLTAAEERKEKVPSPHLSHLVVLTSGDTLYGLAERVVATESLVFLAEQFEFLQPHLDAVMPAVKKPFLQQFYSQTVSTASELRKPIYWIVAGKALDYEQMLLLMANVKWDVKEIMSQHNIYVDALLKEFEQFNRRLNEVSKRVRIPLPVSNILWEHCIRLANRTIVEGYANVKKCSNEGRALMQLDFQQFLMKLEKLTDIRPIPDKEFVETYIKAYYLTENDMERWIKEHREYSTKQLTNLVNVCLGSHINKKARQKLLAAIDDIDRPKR
# UniProt Q969Y2: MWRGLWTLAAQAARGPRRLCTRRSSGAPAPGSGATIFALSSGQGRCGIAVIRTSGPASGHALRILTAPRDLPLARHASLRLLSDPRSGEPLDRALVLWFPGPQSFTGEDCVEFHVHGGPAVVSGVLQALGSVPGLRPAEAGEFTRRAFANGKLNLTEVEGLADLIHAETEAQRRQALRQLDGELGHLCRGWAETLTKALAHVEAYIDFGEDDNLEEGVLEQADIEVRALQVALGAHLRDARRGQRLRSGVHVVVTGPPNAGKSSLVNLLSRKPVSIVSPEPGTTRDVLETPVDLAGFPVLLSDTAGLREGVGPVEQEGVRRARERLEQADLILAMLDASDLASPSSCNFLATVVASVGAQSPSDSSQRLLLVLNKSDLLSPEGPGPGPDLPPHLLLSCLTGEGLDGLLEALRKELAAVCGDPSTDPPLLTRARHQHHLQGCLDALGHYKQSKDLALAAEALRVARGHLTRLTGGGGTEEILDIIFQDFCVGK
# UniProt Q96CU9: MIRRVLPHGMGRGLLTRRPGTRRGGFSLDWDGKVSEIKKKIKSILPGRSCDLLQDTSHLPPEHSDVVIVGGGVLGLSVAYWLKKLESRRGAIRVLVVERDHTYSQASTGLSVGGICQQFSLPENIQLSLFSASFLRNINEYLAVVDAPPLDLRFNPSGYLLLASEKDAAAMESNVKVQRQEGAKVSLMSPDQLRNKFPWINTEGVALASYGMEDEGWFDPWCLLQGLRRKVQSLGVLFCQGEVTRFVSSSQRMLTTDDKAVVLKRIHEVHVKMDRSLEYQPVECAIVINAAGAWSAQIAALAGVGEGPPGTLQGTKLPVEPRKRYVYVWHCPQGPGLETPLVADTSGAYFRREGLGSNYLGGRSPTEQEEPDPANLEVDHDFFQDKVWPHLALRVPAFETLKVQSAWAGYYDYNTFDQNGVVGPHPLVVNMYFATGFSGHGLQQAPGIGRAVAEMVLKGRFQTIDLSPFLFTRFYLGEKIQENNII
# UniProt Q96EY8: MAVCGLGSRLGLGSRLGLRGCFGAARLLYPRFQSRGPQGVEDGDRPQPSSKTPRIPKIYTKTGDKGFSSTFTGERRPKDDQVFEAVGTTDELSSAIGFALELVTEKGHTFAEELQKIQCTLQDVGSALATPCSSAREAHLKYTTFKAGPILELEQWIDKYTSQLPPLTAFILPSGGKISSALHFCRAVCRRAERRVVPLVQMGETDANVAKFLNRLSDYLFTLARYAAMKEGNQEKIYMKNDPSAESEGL
# UniProt Q96P48: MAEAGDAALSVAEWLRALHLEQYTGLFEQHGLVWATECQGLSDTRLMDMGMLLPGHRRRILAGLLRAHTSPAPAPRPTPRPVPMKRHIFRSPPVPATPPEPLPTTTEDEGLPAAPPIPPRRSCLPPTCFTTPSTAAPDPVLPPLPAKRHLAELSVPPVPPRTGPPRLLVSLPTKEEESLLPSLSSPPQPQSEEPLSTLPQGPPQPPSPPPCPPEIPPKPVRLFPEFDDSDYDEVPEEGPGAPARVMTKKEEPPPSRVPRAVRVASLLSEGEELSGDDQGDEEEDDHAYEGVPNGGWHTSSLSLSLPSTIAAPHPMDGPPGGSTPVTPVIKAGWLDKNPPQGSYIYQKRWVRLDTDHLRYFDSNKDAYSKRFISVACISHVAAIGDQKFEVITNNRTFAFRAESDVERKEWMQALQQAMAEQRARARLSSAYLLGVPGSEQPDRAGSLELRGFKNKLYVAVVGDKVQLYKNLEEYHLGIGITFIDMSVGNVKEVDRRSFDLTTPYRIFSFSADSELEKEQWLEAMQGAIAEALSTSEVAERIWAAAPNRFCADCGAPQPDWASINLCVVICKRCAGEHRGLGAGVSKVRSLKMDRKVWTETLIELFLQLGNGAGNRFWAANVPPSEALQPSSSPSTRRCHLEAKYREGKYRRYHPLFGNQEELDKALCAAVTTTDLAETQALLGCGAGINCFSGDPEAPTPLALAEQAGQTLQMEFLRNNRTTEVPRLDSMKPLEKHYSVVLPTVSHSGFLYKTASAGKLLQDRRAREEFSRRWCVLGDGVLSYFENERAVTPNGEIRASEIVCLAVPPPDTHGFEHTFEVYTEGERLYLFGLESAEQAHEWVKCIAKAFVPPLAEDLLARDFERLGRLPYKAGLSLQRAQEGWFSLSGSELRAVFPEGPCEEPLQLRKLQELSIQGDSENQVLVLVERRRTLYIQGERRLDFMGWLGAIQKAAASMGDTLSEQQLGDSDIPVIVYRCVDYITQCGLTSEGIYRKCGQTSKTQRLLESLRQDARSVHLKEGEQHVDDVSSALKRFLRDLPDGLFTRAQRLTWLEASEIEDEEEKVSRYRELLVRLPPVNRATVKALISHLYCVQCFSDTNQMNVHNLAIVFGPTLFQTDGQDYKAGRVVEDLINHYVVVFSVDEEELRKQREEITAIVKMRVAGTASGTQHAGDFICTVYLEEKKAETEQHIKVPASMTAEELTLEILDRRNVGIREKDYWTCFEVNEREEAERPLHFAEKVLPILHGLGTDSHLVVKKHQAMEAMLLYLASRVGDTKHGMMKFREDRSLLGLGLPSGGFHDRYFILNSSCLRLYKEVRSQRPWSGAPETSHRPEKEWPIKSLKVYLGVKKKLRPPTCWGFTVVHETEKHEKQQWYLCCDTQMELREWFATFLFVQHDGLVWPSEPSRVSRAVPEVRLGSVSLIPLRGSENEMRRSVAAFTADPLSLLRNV
# UniProt Q96EX2: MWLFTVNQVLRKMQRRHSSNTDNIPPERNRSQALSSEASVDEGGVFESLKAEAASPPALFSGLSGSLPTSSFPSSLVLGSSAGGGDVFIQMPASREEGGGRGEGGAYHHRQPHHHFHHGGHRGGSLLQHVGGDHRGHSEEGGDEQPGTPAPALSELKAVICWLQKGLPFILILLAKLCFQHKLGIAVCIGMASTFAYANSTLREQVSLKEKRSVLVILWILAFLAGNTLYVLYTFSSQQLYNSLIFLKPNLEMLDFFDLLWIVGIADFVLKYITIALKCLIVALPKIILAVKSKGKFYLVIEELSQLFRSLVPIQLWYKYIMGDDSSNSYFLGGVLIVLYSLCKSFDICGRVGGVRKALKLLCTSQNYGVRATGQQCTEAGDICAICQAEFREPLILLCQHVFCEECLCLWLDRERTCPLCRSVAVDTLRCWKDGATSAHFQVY
# UniProt Q969U7: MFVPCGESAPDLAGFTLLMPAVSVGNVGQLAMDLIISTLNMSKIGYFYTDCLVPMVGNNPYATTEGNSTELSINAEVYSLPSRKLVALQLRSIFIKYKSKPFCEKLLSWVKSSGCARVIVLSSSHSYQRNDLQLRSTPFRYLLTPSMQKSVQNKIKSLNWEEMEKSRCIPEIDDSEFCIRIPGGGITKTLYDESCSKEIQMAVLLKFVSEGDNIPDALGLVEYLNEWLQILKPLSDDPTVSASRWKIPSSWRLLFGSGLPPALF
# UniProt Q96NW4, whole entry: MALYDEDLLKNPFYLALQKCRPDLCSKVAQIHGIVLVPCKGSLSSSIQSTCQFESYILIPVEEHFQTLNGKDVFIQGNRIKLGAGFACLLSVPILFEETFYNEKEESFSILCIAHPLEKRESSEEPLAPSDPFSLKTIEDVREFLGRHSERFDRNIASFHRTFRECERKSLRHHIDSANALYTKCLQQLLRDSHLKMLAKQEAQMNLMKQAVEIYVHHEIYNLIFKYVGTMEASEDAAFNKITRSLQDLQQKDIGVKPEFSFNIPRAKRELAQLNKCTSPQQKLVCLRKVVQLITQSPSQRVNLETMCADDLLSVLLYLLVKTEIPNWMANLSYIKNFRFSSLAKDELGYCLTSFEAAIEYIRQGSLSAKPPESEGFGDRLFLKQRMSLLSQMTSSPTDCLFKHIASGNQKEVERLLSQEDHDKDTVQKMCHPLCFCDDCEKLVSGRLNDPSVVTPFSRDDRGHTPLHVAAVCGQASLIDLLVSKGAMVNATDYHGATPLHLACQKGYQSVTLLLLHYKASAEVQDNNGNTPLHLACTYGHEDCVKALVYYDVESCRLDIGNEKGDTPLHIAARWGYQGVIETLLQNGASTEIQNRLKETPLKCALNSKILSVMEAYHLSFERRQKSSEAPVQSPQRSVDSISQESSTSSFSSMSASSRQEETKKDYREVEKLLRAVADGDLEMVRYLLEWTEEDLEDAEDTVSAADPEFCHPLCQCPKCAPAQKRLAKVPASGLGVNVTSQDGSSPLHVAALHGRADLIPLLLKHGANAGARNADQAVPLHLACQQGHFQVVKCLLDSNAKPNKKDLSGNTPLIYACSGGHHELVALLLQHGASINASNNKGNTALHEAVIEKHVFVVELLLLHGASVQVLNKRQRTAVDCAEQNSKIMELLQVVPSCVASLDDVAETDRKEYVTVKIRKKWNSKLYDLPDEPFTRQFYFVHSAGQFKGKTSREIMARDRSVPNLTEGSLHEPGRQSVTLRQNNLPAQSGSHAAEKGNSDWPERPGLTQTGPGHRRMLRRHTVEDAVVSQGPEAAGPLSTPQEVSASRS
# ± gives the standard deviation of the averaged measurements. The list shows a part of the results, in another mix than the full data. Small differences around the control level are noise.
# Compound: Nc1ncnc2c1ncn2[C@@H]1O[C@H](COP(=O)(O)OP(=O)(O)NP(=O)(O)O)[C@@H](O)[C@H]1O [adenylyl imidodiphosphate]
# Assay: NP40-soluble protein abundance relative to vehicle (solubility fold change) (ratio); higher = more soluble protein in presence of AMP-PNP
# Outline: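 Values are fold changes against the detergent-processed vehicle, based on vsn-normalised intensities. Jurkat crude lysate was treated at eight concentrations from 0.1 to 10 mM (10 min at room temperature, then 3 min at 37 °C), solubilised with 0.8% NP40 and benzonase, ultracentrifuged and analysed by TMT-labelled LC-MS/MS over three independent experiments.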
Target,NP40-soluble protein abundance (concentration: 0.1mM),NP40-soluble protein abundance (concentration: 0.5mM)
UniProt Q96L93 and related entries,0.986 ± 0.034,0.971 ± 0.056
PNPLA2 (UniProt Q96AD5),1.02 ± 0.015,1 ± 0.033
UniProt Q93008 and related entries,1.03 ± 0.041,0.967 ± 0.093
UniProt Q96K58 and related entries,1.02 ± 0.057,1.04 ± 0.067
UniProt Q93084-2,1.01 ± 0.019,0.986 ± 0.015
CCDC97 (UniProt Q96F63),1.03 ± 0.098,1.02 ± 0.042
UniProt Q96AQ8,0.981 ± 0.046,0.987 ± 0.03
UniProt Q96D05 and related entries,0.983 ± 0.01,0.999 ± 0.016
UniProt Q969R2 and related entries,1 ± 0.059,0.9793 ± 0.0078
UniProt Q96E29 and related entries,0.996 ± 0.029,0.975 ± 0.012
ISL2 (UniProt Q96A47),0.988 ± 0.019,0.998 ± 0.036
DDRGK1 (UniProt Q96HY6),1.03 ± 0.054,0.997 ± 0.091
MRPL24 (UniProt Q96A35),1.03 ± 0.097,0.979 ± 0.069
UniProt Q96J84 and related entries,0.995 ± 0.021,1 ± 0.053
SMARCD1 (UniProt Q96GM5),1.02 ± 0.06,1.03 ± 0.081
DTNBP1 (UniProt Q96EV8),1.01 ± 0.019,0.996 ± 0.039
UniProt Q96EZ8 and related entries,1 ± 0.014,0.99 ± 0.056
UniProt Q96J02 and related entries,0.987 ± 0.032,1 ± 0.026
RBM33 (UniProt Q96EV2),1 ± 0.024,1.02 ± 0.045
SLC7A6OS (UniProt Q96CW6),0.981 ± 0.018,1.03 ± 0.04
PYCR2 (UniProt Q96C36),0.965 ± 0.03,0.9825 ± 0.007
KTI12 (UniProt Q96EK9),0.972 ± 0.069,1 ± 0.11
UniProt Q96II8 and related entries,1.003 ± 0.0085,1.01 ± 0.021
FAF2 (UniProt Q96CS3),0.9792 ± 0.0075,0.965 ± 0.017

# Single records (already shown):
# MRPL24 (UniProt Q96A35) as listed: NP40-soluble protein abundance (concentration: 0.1mM): 1.03 ± 0.097; NP40-soluble protein abundance (concentration: 0.5mM): 0.979 ± 0.069
# KTI12 (UniProt Q96EK9) as listed: NP40-soluble protein abundance (concentration: 0.1mM): 0.972 ± 0.069; NP40-soluble protein abundance (concentration: 0.5mM): 1 ± 0.11
# PYCR2 (UniProt Q96C36) as listed: NP40-soluble protein abundance (concentration: 0.1mM): 0.965 ± 0.03; NP40-soluble protein abundance (concentration: 0.5mM): 0.9825 ± 0.007

# (list continues)

Target,NP40-soluble protein abundance (concentration: 0.1mM),NP40-soluble protein abundance (concentration: 0.5mM)
CCDC124 (UniProt Q96CT7),1.03 ± 0.026,1.07 ± 0.043
ZNF830 (UniProt Q96NB3),1.02 ± 0.018,1.03 ± 0.068
FAHD2A (UniProt Q96GK7),1.02 ± 0.023,1.02 ± 0.048
PCMTD1 (UniProt Q96MG8),0.996 ± 0.056,1.01 ± 0.03
UniProt Q96Q45 and related entries,0.968 ± 0.029,0.981 ± 0.055
UHRF2 (UniProt Q96PU4),0.979 ± 0.016,0.986 ± 0.035
DPH3 (UniProt Q96FX2),1.02 ± 0.045,1 ± 0.029
ZNF512B (UniProt Q96KM6),0.981 ± 0.024,1.02 ± 0.066
UniProt Q969M3 and related entries,1.0179 ± 0.00036,1.02 ± 0.02
UniProt Q96N46 and related entries,1 ± 0.023,0.998 ± 0.023
INTS4 (UniProt Q96HW7),1.02 ± 0.025,0.992 ± 0.085
UniProt Q96BZ9 and related entries,0.976 ± 0.035,0.985 ± 0.027
UniProt Q96GC5 and related entries,1.01 ± 0.035,1.05 ± 0.059
UniProt Q96GJ1 and related entries,0.9944 ± 0.0072,0.919 ± 0.035
VCPIP1 (UniProt Q96JH7),0.998 ± 0.021,0.9789 ± 0.0078
UniProt Q96AC1 and related entries,1 ± 0.038,0.983 ± 0.029
RILPL2 (UniProt Q969X0),1 ± 0.042,0.99 ± 0.056
UniProt Q96P47 and related entries,1.032 ± 0.0094,1.01 ± 0.023
GLMN (UniProt Q92990),0.99 ± 0.032,0.953 ± 0.046
LIN37 (UniProt Q96GY3),0.996 ± 0.018,0.977 ± 0.013
NTAN1 (UniProt Q96AB6),1 ± 0.012,0.987 ± 0.012
UniProt Q96N66 and related entries,1.03 ± 0.033,0.999 ± 0.067
UniProt Q96BN8,1.013 ± 0.0076,1.01 ± 0.033
UniProt Q96HS1 and related entries,1.02 ± 0.052,0.995 ± 0.058

Target,NP40-soluble protein abundance (concentration: 0.1mM),NP40-soluble protein abundance (concentration: 0.5mM)
OMA1 (UniProt Q96E52),0.979 ± 0.058,0.978 ± 0.089
UniProt Q96DF8,0.982 ± 0.01,0.969 ± 0.054
C8orf76 (UniProt Q96K31),1.02 ± 0.028,1.01 ± 0.021
TSR2 (UniProt Q969E8),0.972 ± 0.022,1.03 ± 0.03
UniProt Q96AT9 and related entries,1 ± 0.045,1.05 ± 0.066
UniProt Q96JG6,0.991 ± 0.012,0.9973 ± 0.0033
ATG4C (UniProt Q96DT6),1.01 ± 0.045,0.999 ± 0.011
LENG1 (UniProt Q96BZ8),0.9875 ± 0.0039,1.02 ± 0.019
UniProt Q96PY6 and related entries,0.9895 ± 0.0083,0.994 ± 0.026
UniProt Q96Q11 and related entries,1.01 ± 0.065,1.04 ± 0.079
UniProt Q969Y2 and related entries,1.01 ± 0.028,0.967 ± 0.029
UniProt Q96CU9 and related entries,1.03 ± 0.027,1.01 ± 0.034
UniProt Q96L50,1 ± 0.036,0.977 ± 0.06
RFK (UniProt Q969G6),0.961 ± 0.031,1.02 ± 0.031
UniProt Q96KP4 and related entries,1 ± 0.021,1.03 ± 0.01
GNPNAT1 (UniProt Q96EK6),1 ± 0.015,1.03 ± 0.039
UniProt Q96MG7,1.01 ± 0.053,0.998 ± 0.073
ZNF48 (UniProt Q96MX3),1.02 ± 0.02,1.01 ± 0.018
MMAB (UniProt Q96EY8),0.974 ± 0.025,0.973 ± 0.044
EXOC4 (UniProt Q96A65),1.01 ± 0.03,1.01 ± 0.061
UniProt Q96I15 and related entries,1 ± 0.036,0.982 ± 0.019
CHMP6 (UniProt Q96FZ7),1 ± 0.02,1.02 ± 0.02
FAM122A (UniProt Q96E09),0.98 ± 0.011,1.003 ± 0.0017
UniProt Q96P48 and related entries,1.03 ± 0.02,0.97 ± 0.078

Target,NP40-soluble protein abundance (concentration: 0.1mM),NP40-soluble protein abundance (concentration: 0.5mM)
UniProt Q96ED9-2|Q96ED9,1 ± 0.018,1.01 ± 0.02
COG8 (UniProt Q96MW5),1 ± 0.019,0.976 ± 0.014
UniProt Q96FA3,1.02 ± 0.028,0.9763 ± 0.0034
UniProt Q96CB8 and related entries,0.983 ± 0.017,1.03 ± 0.053
RBMXL1 (UniProt Q96E39),1.04 ± 0.036,1.06 ± 0.068
CDK5RAP3 (UniProt Q96JB5),0.998 ± 0.028,0.943 ± 0.019
EDC3 (UniProt Q96F86),1.07 ± 0.027,1.03 ± 0.024
UniProt Q96L73 and related entries,0.9905 ± 0.0073,0.997 ± 0.043
EXOC2 (UniProt Q96KP1),1.05 ± 0.08,0.982 ± 0.033
UniProt Q96QD9 and related entries,0.991 ± 0.011,1.01 ± 0.038
CCDC51 (UniProt Q96ER9),0.981 ± 0.041,1.02 ± 0.043
LTV1 (UniProt Q96GA3),1.02 ± 0.028,1.04 ± 0.058
EAF1 (UniProt Q96JC9),0.967 ± 0.035,1.01 ± 0.041
UniProt Q96EX2,0.987 ± 0.021,0.9991 ± 0.0088
ATG2B (UniProt Q96BY7),0.983 ± 0.023,0.954 ± 0.041
SMARCE1 (UniProt Q969G3),0.997 ± 0.1,1.09 ± 0.17
UniProt Q96D53,1.019 ± 0.0012,0.974 ± 0.022
PUS7 (UniProt Q96PZ0),1.005 ± 0.0093,1.002 ± 0.0076
DCUN1D1 (UniProt Q96GG9),0.998 ± 0.017,1.02 ± 0.031
ZFR (UniProt Q96KR1),1.03 ± 0.058,1.03 ± 0.062
UniProt Q96F44 and related entries,1.02 ± 0.024,1.001 ± 0.0083
COG3 (UniProt Q96JB2),1 ± 0.035,1 ± 0.023
MRPL38 (UniProt Q96DV4),1.03 ± 0.066,0.978 ± 0.091
UniProt Q969N2 and related entries,0.991 ± 0.027,1.03 ± 0.018

Target,NP40-soluble protein abundance (concentration: 0.1mM),NP40-soluble protein abundance (concentration: 0.5mM)
UniProt Q96JM7 and related entries,0.976 ± 0.026,0.957 ± 0.048
NUDT11 (UniProt Q96G61),1.04 ± 0.018,1.04 ± 0.048
NSL1 (UniProt Q96IY1),1.04 ± 0.053,1.01 ± 0.034
UniProt Q96G23,1.07 ± 0.093,1.01 ± 0.11
UniProt Q96GC9,0.9931 ± 0.0015,0.9764 ± 0.0042
UniProt Q96JJ7,1.01 ± 0.021,0.995 ± 0.014
UniProt Q96K17,0.981 ± 0.019,1.02 ± 0.031
UniProt Q96Q89-3|Q96Q89 and related entries,0.986 ± 0.019,0.984 ± 0.044
UniProt Q969U7 and related entries,0.988 ± 0.04,0.983 ± 0.033
UniProt Q96DZ1,0.9585 ± 0.0014,0.97 ± 0.026
PGM2 (UniProt Q96G03),1.02 ± 0.025,0.991 ± 0.081
ANKRD27 (UniProt Q96NW4),0.994 ± 0.0084,1 ± 0.014
GCC1 (UniProt Q96CN9),0.993 ± 0.031,0.974 ± 0.021
UniProt Q96DU3 and related entries,0.995 ± 0.016,0.996 ± 0.019
SFXN2 (UniProt Q96NB2),0.994 ± 0.03,0.968 ± 0.04
UniProt Q96JY6 and related entries,0.994 ± 0.067,0.992 ± 0.045
UniProt Q96HI0 and related entries,1 ± 0.019,0.965 ± 0.034
KCTD12 (UniProt Q96CX2),1.01 ± 0.033,0.999 ± 0.067
NSUN4 (UniProt Q96CB9),1.03 ± 0.058,0.984 ± 0.048
UniProt Q93074-2,1.02 ± 0.014,0.99 ± 0.046
USP13 (UniProt Q92995),1 ± 0.015,0.9817 ± 0.0046
SUCLG2 (UniProt Q96I99),1 ± 0.014,1.011 ± 0.0022
NRBF2 (UniProt Q96F24),0.993 ± 0.031,0.995 ± 0.078
UniProt Q96FJ2,1.08 ± 0.059,1.08 ± 0.086
